# In PubChem BioAssay AID328 (DTP/NCI, 2004):
# The list shows only some results of the screen, not a fair sample: it is rich in T/C values a quarter to a half above the control, in often repeated tests (any T/C) and in doses without a T/C. Further doses and runs are listed elsewhere. T/C gives the treated animals as a percentage of the vehicle group. Some doses have a count of surviving animals in place of a T/C: the source files T/C as zero there, which appears to mark a toxic dose or a test without result, not a measured value. Some survivor counts are full or nearly so, which does not show that the dose was tolerated: the source hardly ever lists a survival T/C far under the control, and the zero likely stands for such cases as well. Survivors were counted at the toxicity check, usually on the fifth day, unless a day is given; later deaths do not show. Schedule codes are those of the source, taken here to give the interval after Q, in days (D) or hours (H), and the number of doses after X. Some doses were run more than once; the values are given in rising order. Where survival is the endpoint, the PubChem record calls one and a half times the control and up active, and a quarter to a half above the control has no call in these data; cut-offs in other NCI protocols can differ. Some T/C values are followed by the survivors on the day toxicity was checked, most often the fifth; where none is given, no animal had died by that day.
# Test system: BDF1 mice, P388 leukemia ip, median survival T/C
# Assay: NCI In Vivo Anticancer Drug Screen. Data for tumor model P388 Leukemia (intraperitoneal) in B6D2F1 (BDF1) mice
# Conditions: T/C endpoint: median survival time, higher T/C = longer survival
# How it was run: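 Read-out is survival of treated animals expressed relative to the vehicle group, as a T/C ratio.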
# [1] = dose: 1.0 mg/kg/injection, schedule: Q01DX009 (ip), vehicle: saline with Tween-80
# [2] = dose: 100.0 mg/kg/injection, schedule: Q01DX009 (ip), vehicle: saline
# [3] = dose: 200.0 mg/kg/injection, schedule: Q04DX003 (ip), vehicle: Klucel (hydroxypropylcellulose) (HPC)
# [4] = dose: 400.0 mg/kg/injection, schedule: Q04DX003 (ip), vehicle: Klucel (hydroxypropylcellulose) (HPC)
# [5] = dose: 100.0 mg/kg/injection, schedule: Q01DX009 (ip), vehicle: saline with Tween-80
smiles,measurement,setting,value
CC[C@](C)(O)C(=O)O[C@H]1C(=O)O[C@@H]2C[C@H]3C(C)=CC(=O)[C@@H](O)[C@]3(C)[C@H]3[C@@]4(O)OC[C@]32[C@@H]1[C@@H](C)[C@H]4O,T/C,"dose: 0.13 mg/kg/injection, schedule: Q01DX009 (ip), vehicle: saline + alcohol",126 % of control
same,T/C,"dose: 0.25 mg/kg/injection, schedule: Q01DX009 (ip), vehicle: saline + alcohol",138 % of control
same,T/C,"dose: 0.25 mg/kg/injection, schedule: Q01DX009 (ip), vehicle: saline with Tween-80",125 % of control
same,T/C,"dose: 0.25 mg/kg/injection, schedule: Q01DX010 (ip), vehicle: steroid suspending solution",136 % of control
same,T/C,"dose: 0.5 mg/kg/injection, schedule: Q01DX009 (ip), vehicle: saline + alcohol",135 % of control [5 of 6 alive]
same,T/C,"dose: 0.5 mg/kg/injection, schedule: Q01DX009 (ip), vehicle: saline with Tween-80",135 % of control [5 of 6 alive]
same,survivor count,"dose: 0.5 mg/kg/injection, schedule: Q01DX010 (ip), vehicle: steroid suspending solution",2 of 4
same,survivor count,"dose: 0.8 mg/kg/injection, schedule: Q01DX009 (ip), vehicle: saline with Tween-80",1 of 6
same,T/C,[1],135 % of control [5 of 6 alive]
same,survivor count,[1],3 of 6
same,survivor count,"dose: 1.0 mg/kg/injection, schedule: Q01DX009 (ip), vehicle: saline",1 of 6
same,survivor count,"dose: 1.0 mg/kg/injection, schedule: Q01DX010 (ip), vehicle: other",2 of 4
same,survivor count,"dose: 1.0 mg/kg/injection, schedule: Q01DX010 (ip), vehicle: saline",3 of 6
same,survivor count,"dose: 1.0 mg/kg/injection, schedule: Q01DX010 (ip), vehicle: steroid suspending solution",1 of 4 and 2 of 4
same,survivor count,"dose: 2.0 mg/kg/injection, schedule: Q01DX009 (ip), vehicle: saline + alcohol",1 of 6
same,survivor count,"dose: 2.0 mg/kg/injection, schedule: Q01DX009 (ip), vehicle: saline",1 of 6
same,survivor count,"dose: 2.0 mg/kg/injection, schedule: Q01DX010 (ip), vehicle: other",0 of 4
same,survivor count,"dose: 2.0 mg/kg/injection, schedule: Q01DX010 (ip), vehicle: steroid suspending solution",0 of 4
same,survivor count,"dose: 4.0 mg/kg/injection, schedule: Q01DX009 (ip), vehicle: saline + alcohol",0 of 6
same,survivor count,"dose: 4.0 mg/kg/injection, schedule: Q01DX010 (ip), vehicle: other",0 of 4
same,survivor count,"dose: 4.0 mg/kg/injection, schedule: Q01DX010 (ip), vehicle: steroid suspending solution",0 of 4
same,survivor count,"dose: 8.0 mg/kg/injection, schedule: Q01DX010 (ip), vehicle: other",0 of 4
same,survivor count,"dose: 8.0 mg/kg/injection, schedule: Q01DX010 (ip), vehicle: steroid suspending solution",0 of 4
C[C@]12C[C@H](O)[C@H]3[C@@H](CCC4=CC(=O)CC[C@@]43C)[C@@H]1CC[C@@H]2C(=O)CO,T/C,"dose: 100.0 mg/kg/injection, schedule: Q04DX003 (sc), vehicle: steroid suspending solution",125 % of control
same,T/C,"dose: 264.0 mg/kg/injection, schedule: Q04DX003 (sc), vehicle: steroid suspending solution",127 % of control
same,T/C,"dose: 400.0 mg/kg/injection, schedule: Q04DX003 (sc), vehicle: steroid suspending solution",125 and 127 % of control
CN1C(=O)Cc2[nH]ccc2C1=O,T/C,"dose: 6.25 mg/kg/injection, schedule: Q04DX003 (ip), vehicle: saline with Tween-80",127 % of control
same,survivor count,"dose: 25.0 mg/kg/injection, schedule: Q04DX003 (ip), vehicle: saline with Tween-80",2 of 6
CC[n+]1ccc2cc(OC)c(OC)cc2c1Cc1ccc(OC)c(OC)c1,survivor count,[2],0 of 6
same,survivor count,"dose: 200.0 mg/kg/injection, schedule: Q04DX003 (ip), vehicle: saline",0 of 6
Cc1cc(OCc2nc(N)nc(N)c2-c2ccc(Cl)c(Cl)c2)ccc1NS(=O)(=O)c1cccc(S(=O)(=O)F)c1,T/C,[3],140 % of control
same,T/C,"dose: 264.0 mg/kg/injection, schedule: Q04DX003 (ip), vehicle: saline",145 % of control
same,T/C,[4],145 % of control
same,T/C,"dose: 400.0 mg/kg/injection, schedule: Q04DX003 (ip), vehicle: saline",136 % of control
C/C=C/C(OCC)OCC,T/C,"dose: 400.0 mg/kg/injection, schedule: Q01DX009 (ip), vehicle: water",127 % of control
same,survivor count,"dose: 400.0 mg/kg/injection, schedule: Q04DX003 (ip), vehicle: water",1 of 6
CCc1cccc(CC)c1-n1c(C)ccc1-c1ccccc1,survivor count,"dose: 400.0 mg/kg/injection, schedule: Q01DX009 (ip), vehicle: saline + alcohol",5 of 6
O=C1N(Cl)C(=O)C(c2ccc(Cl)cc2)(c2ccc(Cl)cc2)N1Cl,T/C,"dose: 50.0 mg/kg/injection, schedule: Q04DX003 (ip), vehicle: saline with Tween-80",140 % of control
same,T/C,"dose: 58.0 mg/kg/injection, schedule: Q04DX003 (ip), vehicle: saline with Tween-80",133 % of control
same,T/C,"dose: 88.0 mg/kg/injection, schedule: Q01DX009 (ip), vehicle: Klucel (hydroxypropylcellulose) (HPC)",129 % of control
same,T/C,"dose: 88.0 mg/kg/injection, schedule: Q02DX005 (ip), vehicle: Klucel (hydroxypropylcellulose) (HPC)",133 % of control
same,T/C,"dose: 88.0 mg/kg/injection, schedule: Q04DX003 (ip), vehicle: saline with Tween-80",141 % of control
same,T/C,"dose: 120.0 mg/kg/injection, schedule: Q04DX003 (ip), vehicle: Klucel (hydroxypropylcellulose) (HPC)",128 % of control
same,T/C,"dose: 132.0 mg/kg/injection, schedule: Q01DX009 (ip), vehicle: Klucel (hydroxypropylcellulose) (HPC)",127 % of control
same,T/C,"dose: 132.0 mg/kg/injection, schedule: Q04DX003 (ip), vehicle: saline with Tween-80",145 % of control
same,T/C,"dose: 200.0 mg/kg/injection, schedule: Q04DX003 (ip), vehicle: saline with Tween-80","139, 145, 158 [5 of 6 alive], 168 % of control"
same,T/C,"dose: 240.0 mg/kg/injection, schedule: Q04DX003 (ip), vehicle: Klucel (hydroxypropylcellulose) (HPC)",142 % of control
same,T/C,"dose: 400.0 mg/kg/injection, schedule: Q04DX003 (ip), vehicle: saline with Tween-80",127 % of control [4 of 6 alive]
CCCCN(CCCC)CCC(O)c1cc(-c2ccc(C(F)(F)F)cc2)nc(C(F)(F)F)c1 (stereo unspecified),survivor count,[5],5 of 6
same,survivor count,"dose: 200.0 mg/kg/injection, schedule: Q01DX009 (ip), vehicle: saline with Tween-80",2 of 6
Nc1ccccc1.[C-]#[O+].[C-]#[O+].[C-]#[O+].[C-]#[O+].[C-]#[O+].[Cr],survivor count,"dose: 10.0 mg/kg/injection, schedule: Q01DX009 (ip), vehicle: saline",0 of 6
same,survivor count,"dose: 20.0 mg/kg/injection, schedule: Q01DX009 (ip), vehicle: saline",0 of 6
CC1C[N-]CC(C)C1.CC1C[N-]CC(C)C1.[Cl][Pt+2]([Cl])([Cl])[Cl] (stereo unspecified),T/C,"dose: 3.12 mg/kg/injection, schedule: Q01DX009 (ip), vehicle: saline",143 % of control
same,T/C,"dose: 6.25 mg/kg/injection, schedule: Q01DX009 (ip), vehicle: saline",136 % of control
same,T/C,"dose: 12.5 mg/kg/injection, schedule: Q01DX009 (ip), vehicle: saline",139 % of control
same,T/C,"dose: 25.0 mg/kg/injection, schedule: Q01DX009 (ip), vehicle: saline, evaluated on day 30",148 % of control
same,T/C,"dose: 25.0 mg/kg/injection, schedule: Q01DX009 (ip), vehicle: saline, evaluated on day 32",136 % of control
same,T/C,"dose: 50.0 mg/kg/injection, schedule: Q01DX009 (ip), vehicle: saline",139 % of control [5 of 6 alive]
same,survivor count,[2],1 of 6
CCCCCCCCCCCCCCC(F)C(=O)O (stereo unspecified),survivor count,"dose: 50.0 mg/kg/injection, schedule: Q01DX009 (ip), vehicle: Klucel (hydroxypropylcellulose) (HPC)",6 of 6
same,survivor count,"dose: 100.0 mg/kg/injection, schedule: Q01DX009 (ip), vehicle: Klucel (hydroxypropylcellulose) (HPC)",5 of 6
same,survivor count,[3],4 of 6
same,survivor count,[4],5 of 6
CC(=O)N1C(=O)N(Cl)C(=O)C1(c1ccc(Cl)cc1)c1ccc(Cl)cc1,T/C,[5],127 % of control
same,T/C,"dose: 160.0 mg/kg/injection, schedule: Q01DX009 (ip), vehicle: saline with Tween-80",127 % of control [5 of 6 alive]
same,survivor count,"dose: 400.0 mg/kg/injection, schedule: Q01DX009 (ip), vehicle: saline with Tween-80",4 of 6
